The target in assay [1] is T1, GST-tagged mouse AQP3 (mouse) (UniProt Q8R2N1).
T1 sequence: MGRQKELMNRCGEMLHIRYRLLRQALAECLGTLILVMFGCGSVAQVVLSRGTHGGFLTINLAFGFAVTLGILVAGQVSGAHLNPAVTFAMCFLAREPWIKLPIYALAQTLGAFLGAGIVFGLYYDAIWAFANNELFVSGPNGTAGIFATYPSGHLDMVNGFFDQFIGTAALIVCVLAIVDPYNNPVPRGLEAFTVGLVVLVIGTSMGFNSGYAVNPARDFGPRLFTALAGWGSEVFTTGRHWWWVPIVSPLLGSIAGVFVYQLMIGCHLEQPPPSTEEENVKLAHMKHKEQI
Nature of the assay: co-IP; Sf9 cells infected 48 h with baculovirus for AQP3-GST, PLD2-His or both; lysed in RIPA buffer, precleared; IP with anti-GST or anti-PLD2 antibody 2 h at 4°C, IgG-coated Dynal beads, four washes with RIPA buffer; immunoblot with anti-GST or anti-His. Background: In western blotting, separated proteins are transferred to a membrane and probed.

Protein sequences, listed by entry. Tags and fused reporters are not part of them.
UniProt P97813: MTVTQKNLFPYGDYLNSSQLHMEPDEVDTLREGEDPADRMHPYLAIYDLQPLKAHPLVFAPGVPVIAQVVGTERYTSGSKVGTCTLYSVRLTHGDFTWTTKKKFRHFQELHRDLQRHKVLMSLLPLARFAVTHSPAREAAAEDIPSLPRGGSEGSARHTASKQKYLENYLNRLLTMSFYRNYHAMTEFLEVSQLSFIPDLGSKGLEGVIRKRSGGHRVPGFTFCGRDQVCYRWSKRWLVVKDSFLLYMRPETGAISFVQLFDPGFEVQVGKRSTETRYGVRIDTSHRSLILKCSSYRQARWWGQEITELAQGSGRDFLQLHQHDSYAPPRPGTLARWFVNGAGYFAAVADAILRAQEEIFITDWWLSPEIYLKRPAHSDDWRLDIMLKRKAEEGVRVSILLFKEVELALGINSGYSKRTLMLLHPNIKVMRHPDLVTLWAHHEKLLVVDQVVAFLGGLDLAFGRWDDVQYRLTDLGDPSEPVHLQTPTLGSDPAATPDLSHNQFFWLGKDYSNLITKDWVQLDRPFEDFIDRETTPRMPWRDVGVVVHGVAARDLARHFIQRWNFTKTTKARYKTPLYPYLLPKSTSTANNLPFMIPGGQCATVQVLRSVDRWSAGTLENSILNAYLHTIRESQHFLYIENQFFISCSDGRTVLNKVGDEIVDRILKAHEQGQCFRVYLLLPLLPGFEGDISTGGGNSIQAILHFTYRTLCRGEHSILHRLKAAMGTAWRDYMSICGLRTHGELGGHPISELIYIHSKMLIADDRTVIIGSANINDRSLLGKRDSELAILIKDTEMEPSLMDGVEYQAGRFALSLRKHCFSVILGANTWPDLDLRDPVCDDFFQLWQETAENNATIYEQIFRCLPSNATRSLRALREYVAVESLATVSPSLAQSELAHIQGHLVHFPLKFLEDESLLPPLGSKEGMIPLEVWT
UniProt O14939: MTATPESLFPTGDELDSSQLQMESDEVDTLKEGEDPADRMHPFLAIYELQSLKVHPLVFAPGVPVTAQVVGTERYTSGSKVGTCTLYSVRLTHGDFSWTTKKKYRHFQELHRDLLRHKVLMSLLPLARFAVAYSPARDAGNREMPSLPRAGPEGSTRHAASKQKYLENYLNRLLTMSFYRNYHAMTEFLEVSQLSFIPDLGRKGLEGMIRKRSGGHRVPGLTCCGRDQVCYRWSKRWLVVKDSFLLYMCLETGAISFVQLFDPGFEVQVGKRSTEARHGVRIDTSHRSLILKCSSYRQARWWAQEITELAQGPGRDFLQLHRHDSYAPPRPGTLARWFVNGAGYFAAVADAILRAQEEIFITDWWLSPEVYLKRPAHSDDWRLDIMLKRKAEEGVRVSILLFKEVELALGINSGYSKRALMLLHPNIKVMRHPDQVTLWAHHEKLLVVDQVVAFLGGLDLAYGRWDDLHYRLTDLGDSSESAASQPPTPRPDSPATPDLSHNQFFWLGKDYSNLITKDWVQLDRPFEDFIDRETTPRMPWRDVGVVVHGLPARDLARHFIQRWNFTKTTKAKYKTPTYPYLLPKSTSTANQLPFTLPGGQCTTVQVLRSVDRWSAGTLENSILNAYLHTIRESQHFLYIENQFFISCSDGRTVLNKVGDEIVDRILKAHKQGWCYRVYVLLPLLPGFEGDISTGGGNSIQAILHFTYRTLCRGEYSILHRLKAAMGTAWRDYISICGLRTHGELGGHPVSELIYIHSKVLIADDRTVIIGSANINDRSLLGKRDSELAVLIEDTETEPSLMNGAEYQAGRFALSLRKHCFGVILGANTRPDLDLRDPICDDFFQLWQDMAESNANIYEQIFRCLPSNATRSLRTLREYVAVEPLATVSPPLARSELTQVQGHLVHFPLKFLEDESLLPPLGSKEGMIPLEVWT

Assay [2] concerns the target T2, aquaporin-3 (AQP3), endogenous in immortalized human corneal epithelial (IHCE) cells (human (endogenous in IHCE cells)) (UniProt Q92482).
T2 sequence (chain, both glycosylated and unglycosylated forms): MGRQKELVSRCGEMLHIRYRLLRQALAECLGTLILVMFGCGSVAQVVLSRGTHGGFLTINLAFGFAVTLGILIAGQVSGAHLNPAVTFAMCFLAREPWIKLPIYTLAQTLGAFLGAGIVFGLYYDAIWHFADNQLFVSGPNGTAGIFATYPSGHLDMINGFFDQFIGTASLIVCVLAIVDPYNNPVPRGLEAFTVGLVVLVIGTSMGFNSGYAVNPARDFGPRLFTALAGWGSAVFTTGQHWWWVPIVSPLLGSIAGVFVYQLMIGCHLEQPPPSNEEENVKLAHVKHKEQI
Nature of the assay: co-IP; endogenous proteins from IHCE cell lysates in RIPA buffer; immunoprecipitation with an antibody recognizing AQP3 (Alomone Labs), western blotting for AQP3 or PLD2.

In assay [3] the target is His-tagged full-length mouse PLD2 (mouse) (UniProt P97813). Kind of assay: co-IP; Sf9 cells infected 48 h with baculovirus for AQP3-GST, PLD2-His or both; lysed in RIPA buffer, precleared; IP with anti-GST or anti-PLD2 antibody 2 h at 4°C, IgG-coated Dynal beads, four washes with RIPA buffer; immunoblot with anti-GST or anti-His.
Assay [4] concerns the target phospholipase D2 (PLD2), endogenous in immortalized human corneal epithelial (IHCE) cells (human (endogenous in IHCE cells)) (UniProt O14939). Kind of assay: co-IP; endogenous proteins from IHCE cell lysates in RIPA buffer; immunoprecipitation with an antibody recognizing AQP3 (Alomone Labs), western blotting for AQP3 or PLD2.

These are yes or no findings as the source states them, for the method shown. Binding seen in cells or lysates may run through a third protein. Some entries that bind do so weakly or less than the wild type. For some of these results: Where a sequence is shown, tags or fusion partners need not be part of it.

“His-tagged full-length mouse PLD2 (from UniProt P97813 1-933) (enzyme)”: the binding result in assay [1] is on record as “binds”.
As to “phospholipase D2 (PLD2), endogenous in immortalized human corneal epithelial (IHCE) cells (from UniProt O14939 1-933) (enzyme)”, the binding result in assay [2] is recorded as “binds”.

B1: GST-tagged mouse AQP3 (protein, UniProt Q8R2N1 1-292)
chain: MGRQKELMNRCGEMLHIRYRLLRQALAECLGTLILVMFGCGSVAQVVLSRGTHGGFLTINLAFGFAVTLGILVAGQVSGAHLNPAVTFAMCFLAREPWIKLPIYALAQTLGAFLGAGIVFGLYYDAIWAFANNELFVSGPNGTAGIFATYPSGHLDMVNGFFDQFIGTAALIVCVLAIVDPYNNPVPRGLEAFTVGLVVLVIGTSMGFNSGYAVNPARDFGPRLFTALAGWGSEVFTTGRHWWWVPIVSPLLGSIAGVFVYQLMIGCHLEQPPPSTEEENVKLAHMKHKEQI
For B1, in assay [3], the binding entry is reported as “binds”.

B2: aquaporin-3 (AQP3), endogenous in immortalized human corneal epithelial (IHCE) cells (protein, UniProt Q92482 1-292)
chain: MGRQKELVSRCGEMLHIRYRLLRQALAECLGTLILVMFGCGSVAQVVLSRGTHGGFLTINLAFGFAVTLGILIAGQVSGAHLNPAVTFAMCFLAREPWIKLPIYTLAQTLGAFLGAGIVFGLYYDAIWHFADNQLFVSGPNGTAGIFATYPSGHLDMINGFFDQFIGTASLIVCVLAIVDPYNNPVPRGLEAFTVGLVVLVIGTSMGFNSGYAVNPARDFGPRLFTALAGWGSAVFTTGQHWWWVPIVSPLLGSIAGVFVYQLMIGCHLEQPPPSNEEENVKLAHVKHKEQI
modifications: both glycosylated and unglycosylated forms
Turning to B2, in assay [4], the binding entry is on record as “binds”.

The record behind these values is paper PMC7401755.
